Experimental data published in paper PMC11578312, “Proximity‐Unlocked Luminescence by Sequential Enzymatic Reactions from Antibody and Antibody/Aptamer (PULSERAA): A Platform for Detection and Visualization of Virus‐Containing Spots”.
The exact form of at least one protein or probe is not confirmed. The comparison behind a weaker result is the experiment's own reference, which may not be listed here. At least one verdict was read from the data and is not stated in words by the source. Where a protein sequence is shown, tags need not be part of it.

Molecular target: T1, myoglobin (Mb) (UniProt P02144)
T1 sequence (looked up, limits assumed): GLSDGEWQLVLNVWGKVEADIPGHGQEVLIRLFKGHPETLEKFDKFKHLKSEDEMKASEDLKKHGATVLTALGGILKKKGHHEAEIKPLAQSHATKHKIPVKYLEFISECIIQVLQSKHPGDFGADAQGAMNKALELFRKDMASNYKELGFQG
Test: dot blot
Conditions: dot blot: 10 mM sodium phosphate pH 7.0, 10 mM KCl, 0.05% Tween-20, 100 nM oligonucleotide, 25 C, 1 h (block 2% BSA), commercial protein, label: 3'-biotinylated oligonucleotide mixed in, folded or branched DNA

GGGCGGGTTGGGCTGGGTTTTTGGGGTTATTTTGGGTGTGGTGGGTGGGGGTT [PEA3-01–2R-01]
binding result (better binder than 2R-01–PEA3-01): binds

TTGGGGTTATTTTGGGTGTGGTGGGTGGGGGTTTTTGGGCGGGTTGGGCTGGG [2R-01–PEA3-01]
binding result (relative to PEA3-01–2R-01): binds more weakly
